Measured values: publication PMC8233366
These are yes or no findings as the source states them, for the method shown. Binding seen in cells or lysates may run through a third protein.

Chains of the proteins cited; added tags and fusions are not shown. Lines headed by an entry give the natural chain unless they say otherwise; changes in a name come on top.
UniProt Q92540: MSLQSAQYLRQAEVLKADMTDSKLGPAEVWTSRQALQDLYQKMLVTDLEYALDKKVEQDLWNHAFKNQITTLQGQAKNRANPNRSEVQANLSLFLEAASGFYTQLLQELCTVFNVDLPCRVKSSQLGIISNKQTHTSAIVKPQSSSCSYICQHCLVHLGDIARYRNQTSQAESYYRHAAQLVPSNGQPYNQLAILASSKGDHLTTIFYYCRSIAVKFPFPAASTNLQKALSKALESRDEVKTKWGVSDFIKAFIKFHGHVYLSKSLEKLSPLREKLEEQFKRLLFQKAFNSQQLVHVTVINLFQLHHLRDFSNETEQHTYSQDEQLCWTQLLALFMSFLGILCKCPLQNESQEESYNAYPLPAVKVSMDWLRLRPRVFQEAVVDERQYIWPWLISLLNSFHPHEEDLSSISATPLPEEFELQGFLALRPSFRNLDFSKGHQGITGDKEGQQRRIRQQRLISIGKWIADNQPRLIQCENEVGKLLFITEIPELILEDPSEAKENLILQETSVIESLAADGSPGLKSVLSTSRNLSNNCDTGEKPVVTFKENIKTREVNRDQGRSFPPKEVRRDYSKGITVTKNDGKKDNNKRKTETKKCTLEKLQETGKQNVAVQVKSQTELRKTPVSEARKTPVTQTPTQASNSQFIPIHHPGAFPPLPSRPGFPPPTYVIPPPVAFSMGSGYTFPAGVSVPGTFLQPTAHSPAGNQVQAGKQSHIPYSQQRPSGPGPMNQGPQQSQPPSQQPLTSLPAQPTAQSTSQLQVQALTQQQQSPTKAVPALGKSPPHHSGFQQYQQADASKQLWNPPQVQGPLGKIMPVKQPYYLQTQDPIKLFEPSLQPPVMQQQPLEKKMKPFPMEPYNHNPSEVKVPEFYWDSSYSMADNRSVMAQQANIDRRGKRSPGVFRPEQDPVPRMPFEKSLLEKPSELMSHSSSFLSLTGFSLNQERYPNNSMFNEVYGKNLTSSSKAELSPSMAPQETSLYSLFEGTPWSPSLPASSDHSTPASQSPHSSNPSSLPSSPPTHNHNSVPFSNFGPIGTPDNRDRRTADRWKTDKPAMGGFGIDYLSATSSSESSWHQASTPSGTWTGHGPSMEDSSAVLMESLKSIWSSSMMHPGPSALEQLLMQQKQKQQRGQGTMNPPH

Target: FLAG-tagged SMG7 14-3-3^mut (human) (UniProt Q92540)
Assay: co-IP; FLAG-tagged SMG7 constructs expressed in SMG7 KO cells; lysis in buffer E (20 mM HEPES-KOH pH 7.9, 100 mM KCl, 10% glycerol, 1 mM DTT, 1 µg/ml RNase A); Anti-FLAG M2 magnetic beads, 2 h at 4 °C; immunoblot (Fig. 2c, Extended Data Fig. 3f)

binding: no binding
B1: phosphorylated UPF1 (endogenous) (protein, UniProt Q92900 1-1129)
chain: MSVEAYGPSSQTLTFLDTEEAELLGADTQGSEFEFTDFTLPSQTQTPPGGPGGPGGGGAGGPGGAGAGAAAGQLDAQVGPEGILQNGAVDDSVAKTSQLLAELNFEEDEEDTYYTKDLPIHACSYCGIHDPACVVYCNTSKKWFCNGRGNTSGSHIVNHLVRAKCKEVTLHKDGPLGETVLECYNCGCRNVFLLGFIPAKADSVVVLLCRQPCASQSSLKDINWDSSQWQPLIQDRCFLSWLVKIPSEQEQLRARQITAQQINKLEELWKENPSATLEDLEKPGVDEEPQHVLLRYEDAYQYQNIFGPLVKLEADYDKKLKESQTQDNITVRWDLGLNKKRIAYFTLPKTDSGNEDLVIIWLRDMRLMQGDEICLRYKGDLAPLWKGIGHVIKVPDNYGDEIAIELRSSVGAPVEVTHNFQVDFVWKSTSFDRMQSALKTFAVDETSVSGYIYHKLLGHEVEDVIIKCQLPKRFTAQGLPDLNHSQVYAVKTVLQRPLSLIQGPPGTGKTVTSATIVYHLARQGNGPVLVCAPSNIAVDQLTEKIHQTGLKVVRLCAKSREAIDSPVSFLALHNQIRNMDSMPELQKLQQLKDETGELSSADEKRYRALKRTAERELLMNADVICCTCVGAGDPRLAKMQFRSILIDESTQATEPECMVPVVLGAKQLILVGDHCQLGPVVMCKKAAKAGLSQSLFERLVVLGIRPIRLQVQYRMHPALSAFPSNIFYEGSLQNGVTAADRVKKGFDFQWPQPDKPMFFYVTQGQEEIASSGTSYLNRTEAANVEKITTKLLKAGAKPDQIGIITPYEGQRSYLVQYMQFSGSLHTKLYQEVEIASVDAFQGREKDFIILSCVRANEHQGIGFLNDPRRLNVALTRARYGVIIVGNPKALSKQPLWNHLLNYYKEQKVLVEGPLNNLRESLMQFSKPRKLVNTINPGARFMTTAMYDAREAIIPGSVYDRSSQGRPSSMYFQTHDQIGMISAGPSHVAAMNIPIPFNLVMPPMPPPGYFGQANGPAAGRGTPKGKTGRGGRQKNRFGLPGPSQTNLPNSQASQDVASQPFSQGALTQGYISMSQPSQMSQPGLSQPELSQDSYLGDEFKSQIDVALSQDSTYQGERAYQHGGVTGLSQY
modifications: phosphorylated (p-UPF1); residues not stated for the co-IP blots
